In assay [1] the target is T1, TNFR-Wengen, Flag-tagged (TNFR-wgn-Flag) (Drosophila melanogaster) (UniProt Q9VWS4).
T1 sequence: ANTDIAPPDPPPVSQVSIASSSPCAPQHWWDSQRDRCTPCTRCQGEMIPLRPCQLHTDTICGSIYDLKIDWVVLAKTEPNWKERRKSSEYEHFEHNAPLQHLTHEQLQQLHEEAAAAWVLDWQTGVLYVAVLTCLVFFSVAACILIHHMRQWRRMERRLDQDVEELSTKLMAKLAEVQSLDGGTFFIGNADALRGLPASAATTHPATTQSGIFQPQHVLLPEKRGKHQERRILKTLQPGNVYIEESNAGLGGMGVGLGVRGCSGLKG
Nature of the assay: proximity ligation; in situ PLA (Duolink In Situ Red, Mouse/Rabbit) on fixed tracheal dorsal trunks of L3 larvae btlGal4>btl-GFP; wgn-flag, primary antibodies against GFP and FLAG; PLA spots counted per 400 μm^2 region.

The target of assay [2] is T1, TNFR-Wengen, Flag-tagged (TNFR-wgn-Flag) (Drosophila melanogaster). Nature of the assay: co-IP; extracts of third-instar larval salivary glands co-expressing TNFR-wgn-Flag and FGFR-btl-GFP or FGFR-λbtl, lysed in RIPA buffer (50 mM Tris-HCl pH8, 150 mM NaCl, 0.1% SDS, 0.5% sodium deoxycholate, 1% Triton X-100); immunoprecipitated with αFlag or control αAbd-B, Protein G Dynabeads, washed with RIPA; Western blot with αBtl and αFlag. In general terms: Immunoblotting shows a protein as a band on a membrane.

These are yes or no findings as the source states them, for the method shown. In cells and extracts the contact can be indirect. Some binding calls cover weakened binding; strength is not graded here. Sequences can lack the tags named with a protein.

B1: FGFR-Breathless, GFP-tagged (FGFR-btl-GFP) (receptor, UniProt Q09147 20-1052)
chain: DLGCDYGHHRCYIDVTVENSPRQRHLLSDMDITLQCVRPMAKWFYEDKFQLRATLLRLERAQSGNSGNYGCLDSQNRWYNISLVVGHKEPVGNDIASFVKLEDAPALPESDLFFQPLNESRSLKLLQPLPKTVQRTAGGLFQLNCSPMDPDAKGVNISWLHNDTQILGGRGRIKLKRWSLTVGQLQPEDAGSYHCELCVEQDCQRSNPTQLEVISRKHTVPMLKPGYPRNTSIALGDNVSIECLLEDSALEPKITWLHKGNADNIDDLLQRLREQSQLPVDVTRLITRMDEPQVLRLGNVLMEDGGWYICIAENQVGRTVAASYVDLYSPSDTTTVRTTTTTTVASPIPTASTGEDNDDDVENPAAEASGGVGPPVFRKELKRLQHSLSGNTVNLACPVYGKANITWTKDKKPLNRELGVYVQKNWTLRFVEATSEDSGLYNCKVCNAWGCIQFDFSVQINDRTRSAPIIVVPQNQTVKVNGSLVMKCTVYSDLHPTVSWKRVVLKNASLDGLKSVEIQNLNFTVTNDSVVLTLRNVTFDQEGWYTCLASSGLGRSNSSVYLRVVSPLPPLEIYALLHAHPLGFTLAAITIVALFLLGSAFITFMLRRLRREKLLKLRIETVHQWTKKVIIYRPGGEEGSGCSSGDLQMPVIRIEKQRTTVSTTGTGGTDPAQGFNEYEFPLDSNWEIPRQQLSLGSILGEGAFGRVVMAEAEGLPRSPQLAETIVAVKMVKEEHTDTDMASLVREMEVMKMIGKHINIINLLGCCSQGGPLWVIVEYAPHGNLKDFLKQNRPGAPQRRSDSDGYLDDKPLISTQHLGEKELTKFAFQIARGMEYLASRRCIHRDLAARNVLVSDGYVMKIADFGLARDIQDTEYYRKNTNGRLPIKWMAPESLQEKKYDSQSDVWSYGVLLWEIMTYGDQPYPHILSAEELYSYLITGQRMEKPAKCSLNIYVVMRQCWHFESCARPTFAELVESFDGILQQASSNPNDAYLDLSMPMLETPPSSGDEDDGSDTETFRETSPLRYQYTYKFN
For the molecule B1, the binding entry in assay [1] and in assay [2] was “binds” throughout.

These data come from publication PMC10514202.
